Results as given in paper PMC5945891, “Proteomics of Stored Red Blood Cell Membrane and Storage-Induced Microvesicles Reveals the Association of Flotillin-2 With Band 3 Complexes” (Frontiers in Physiology, 2018).
No constants are given. Whether binding was seen depends on the method and setting. Binding seen in cells or lysates may run through a third protein. Some binding calls cover weakened binding; strength is not graded here.

Chains of the proteins cited; added tags and fusions are not shown.
UniProt P02730: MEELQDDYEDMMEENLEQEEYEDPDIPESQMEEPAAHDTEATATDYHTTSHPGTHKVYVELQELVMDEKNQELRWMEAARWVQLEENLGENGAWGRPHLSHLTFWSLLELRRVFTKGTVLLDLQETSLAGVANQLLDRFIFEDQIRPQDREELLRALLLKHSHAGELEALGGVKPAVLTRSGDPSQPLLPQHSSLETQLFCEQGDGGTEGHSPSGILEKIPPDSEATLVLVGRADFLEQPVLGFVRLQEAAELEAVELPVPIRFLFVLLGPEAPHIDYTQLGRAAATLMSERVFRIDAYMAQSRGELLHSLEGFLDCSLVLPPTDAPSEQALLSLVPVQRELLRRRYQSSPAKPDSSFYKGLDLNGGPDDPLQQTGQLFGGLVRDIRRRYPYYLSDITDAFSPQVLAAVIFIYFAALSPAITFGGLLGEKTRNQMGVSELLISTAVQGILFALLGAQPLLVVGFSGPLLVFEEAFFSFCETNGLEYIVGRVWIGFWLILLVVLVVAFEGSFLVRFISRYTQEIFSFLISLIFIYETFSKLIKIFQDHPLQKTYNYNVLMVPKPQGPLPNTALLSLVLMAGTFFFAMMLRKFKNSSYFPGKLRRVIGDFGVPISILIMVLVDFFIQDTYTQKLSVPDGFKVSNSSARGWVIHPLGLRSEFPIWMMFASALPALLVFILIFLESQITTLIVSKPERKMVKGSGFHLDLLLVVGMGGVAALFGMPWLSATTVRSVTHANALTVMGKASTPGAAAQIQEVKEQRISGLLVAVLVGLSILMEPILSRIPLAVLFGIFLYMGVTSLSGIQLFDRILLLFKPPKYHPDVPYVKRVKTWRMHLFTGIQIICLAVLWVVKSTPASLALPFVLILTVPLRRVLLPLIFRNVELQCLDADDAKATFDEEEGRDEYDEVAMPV
UniProt P35611: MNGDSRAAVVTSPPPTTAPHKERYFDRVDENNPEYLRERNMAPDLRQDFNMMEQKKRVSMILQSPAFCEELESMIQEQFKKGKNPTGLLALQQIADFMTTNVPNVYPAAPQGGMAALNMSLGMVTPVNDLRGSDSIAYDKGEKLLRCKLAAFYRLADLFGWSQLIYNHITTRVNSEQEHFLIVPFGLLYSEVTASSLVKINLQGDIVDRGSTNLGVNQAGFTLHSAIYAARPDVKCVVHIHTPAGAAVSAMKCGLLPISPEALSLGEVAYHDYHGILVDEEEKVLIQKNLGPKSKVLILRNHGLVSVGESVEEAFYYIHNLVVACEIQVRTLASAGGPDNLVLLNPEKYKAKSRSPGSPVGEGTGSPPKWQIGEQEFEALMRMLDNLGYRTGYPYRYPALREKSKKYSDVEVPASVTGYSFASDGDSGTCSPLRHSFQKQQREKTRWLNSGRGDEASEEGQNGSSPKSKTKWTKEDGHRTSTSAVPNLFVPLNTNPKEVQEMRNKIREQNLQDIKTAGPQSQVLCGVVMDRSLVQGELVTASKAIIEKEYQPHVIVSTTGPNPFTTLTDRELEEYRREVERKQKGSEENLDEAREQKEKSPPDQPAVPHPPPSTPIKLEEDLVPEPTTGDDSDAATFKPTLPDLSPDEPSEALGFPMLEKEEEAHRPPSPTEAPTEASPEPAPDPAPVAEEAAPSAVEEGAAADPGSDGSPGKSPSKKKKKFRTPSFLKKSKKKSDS

Experiments:
[1] = biological target: band 3 (human (endogenous in RBCs)) (UniProt P02730); test: co-IP; band 3 complexes captured from 1% deoxycholate extracts of RBC membranes (short- and long-stored ECs, bags A-C) on beads coated with BRIC 6 and BRIC 170; eluates analysed by western blot (ADSL, α-adducin, flotillin-2), densitometry relative to Ponceau loading
[2] = biological target: band 3 (human (endogenous in RBCs)) (UniProt P02730); test: co-IP; band 3 complexes captured from 1% deoxycholate extracts of storage-induced microvesicles (bags D-F; compared with RBCs of the same bags) on beads coated with BRIC 6 and BRIC 170; eluates analysed by western blot for flotillin-2, densitometry

Row | binding [1] | binding [2] | Molecule
1 | binds |  | Alpha-adducin (from UniProt P35611 1-737)
2 | binds | binds | Flotillin-2 (natural protein, human (endogenous in RBCs), UniProt Q14254 1-428, looked up, flotillin-2, human, SwissProt Q14254; source: endogenous, membranes of stored human RBCs and storage-induced microvesicles, 1% deoxycholate extract) MGNCHTVGPNEALVVSGGCCGSDYKQYVFGGWAWAWWCISDTQRISLEIMTLQPRCEDVETAEGVALTVTGVAQVKIMTEKELLAVACEQFLGKNVQDIKNVVLQTLEGHLRSILGTLTVEQIYQDRDQFAKLVREVAAPDVGRMGIEILSFTIKDVYDKVDYLSSLGKTQTAVVQRDADIGVAEAERDAGIREAECKKEMLDVKFMADTKIADSKRAFELQKSAFSEEVNIKTAEAQLAYELQGAREQQKIRQEEIEIEVVQRKKQIAVEAQEILRTDKELIATVRRPAEAEAHRIQQIAEGEKVKQVLLAQAEAEKIRKIGEAEAAVIEAMGKAEAERMKLKAEAYQKYGDAAKMALVLEALPQIAAKIAAPLTKVDEIVVLSGDNSKVTSEVNRLLAELPASVHALTGVDLSKIPLIKKATGVQV
3 | binds |  | Adenylosuccinate lyase (enzyme, UniProt P30566 1-484) MAAGGDHGSPDSYRSPLASRYASPEMCFVFSDRYKFRTWRQLWLWLAEAEQTLGLPITDEQIQEMKSNLENIDFKMAAEEEKRLRHDVMAHVHTFGHCCPKAAGIIHLGATSCYVGDNTDLIILRNALDLLLPKLARVISRLADFAKERASLPTLGFTHFQPAQLTTVGKRCCLWIQDLCMDLQNLKRVRDDLRFRGVKGTTGTQASFLQLFEGDDHKVEQLDKMVTEKAGFKRAFIITGQTYTRKVDIEVLSVLASLGASVHKICTDIRLLANLKEMEEPFEKQQIGSSAMPYKRNPMRSERCCSLARHLMTLVMDPLQTASVQWFERTLDDSANRRICLAEAFLTADTILNTLQNISEGLVVYPKVIERRIRQELPFMATENIIMAMVKAGGSRQDCHEKIRVLSQQAASVVKQEGGDNDLIERIQVDAYFSPIHSQLDHLLDPSSFTGRASQQVQRFLEEEVYPLLKPYESVMKVKAELCL
